Results on 31 compounds are retold here after PubChem BioAssay AID330 (DTP/NCI, 2004).

The list does not hold the whole screen: it gathers tests that were run many times, whatever their T/C, doses with no T/C, and many T/C values between a quarter and a half above the control. Other doses and runs of a compound stand elsewhere. T/C: endpoint of the treated group in % of that of the vehicle group. Some doses have a count of surviving animals in place of a T/C: the source holds a T/C of zero for them, seemingly a mark for toxic or unscored doses. Some survivor counts are full or nearly so, which does not show that the dose was tolerated: the source hardly ever lists a survival T/C far under the control, and the zero likely stands for such cases as well. Survivors were counted at the toxicity check, usually on the fifth day, unless a day is given; later deaths do not show. Schedules are NCI's codes, taken here to give the interval after Q, in days (D) or hours (H), and the number of doses after X. Signs of the kind (2×) say how often a value occurs here. Some entries hold several experiments; their values stand side by side, smallest first. For survival time, this PubChem deposit counts one and a half times the control or more as active, and values a quarter to a half above the control carry no call in these data; other NCI protocols may use other cut-offs. Some T/C values are followed by the survivors on the day toxicity was checked, most often the fifth; without a count, all were alive then.

The subject of the experiment is P388 leukemia ip, CD2F1 mice, survival T/C. The experiment can be described thus: NCI In Vivo Anticancer Drug Screen. Data for tumor model P388 Leukemia (intraperitoneal) in CD2F1 (CDF1) mice. The settings on record: T/C endpoint: median survival time, higher T/C = longer survival.
Setting [1] is: dose: 60.0 mg/kg/injection, schedule: Q01DX005 (ip), vehicle: saline with Tween-80.
The mark [2] stands for this setting: dose: 120.0 mg/kg/injection, schedule: Q01DX005 (ip), vehicle: saline with Tween-80.
Setting [3] is: dose: 240.0 mg/kg/injection, schedule: Q01DX005 (ip), vehicle: saline with Tween-80.
Where [4] appears, read: dose: 100.0 mg/kg/injection, schedule: Q01DX005 (ip), vehicle: Klucel (hydroxypropylcellulose) (HPC).
Where [5] appears, read: dose: 200.0 mg/kg/injection, schedule: Q01DX005 (ip), vehicle: Klucel (hydroxypropylcellulose) (HPC).
[6] abbreviates: dose: 200.0 mg/kg/injection, schedule: Q01DX005 (ip), vehicle: saline with Tween-80.
Setting [7] is: dose: 50.0 mg/kg/injection, schedule: Q01DX009 (ip), vehicle: saline with Tween-80.
Where [8] appears, read: dose: 200.0 mg/kg/injection, schedule: Q01DX009 (ip), vehicle: saline.
[9] abbreviates: dose: 200.0 mg/kg/injection, schedule: Q01DX009 (ip), vehicle: saline with Tween-80.
[10] abbreviates: dose: 400.0 mg/kg/injection, schedule: Q01DX009 (ip), vehicle: saline with Tween-80.

For `CSC(=S)c1c(O)ccc2ccccc12`, the survivor count by setting is: (dose: 200.0 mg/kg/injection, schedule: Q04DX002 (ip), vehicle: saline with Tween-80) 1 of 6; (dose: 400.0 mg/kg/injection, schedule: Q04DX002 (ip), vehicle: saline with Tween-80) 0 of 6.

As for `Cc1ccc(NC(=O)C#N)cc1`, the survivor count reads like this: under setting [1], 0 of 6; under setting [2], 0 of 6; under setting [3], 0 of 6.

`FC(F)(F)C1=C(C(F)(F)F)SP(Cl)(c2ccccc2)(c2ccccc2)S1`: the survivor count (dose: 400.0 mg/kg/injection, schedule: Q04DX003 (ip), vehicle: other) is 5 of 6.

Regarding `CC(C)CC(NC(=O)C(Cc1c[nH]c2ccccc12)NC(=O)OC(C)(C)C)C(=O)NN` (stereo not given), the T/C (dose: 200.0 mg/kg/injection, schedule: Q01DX009 (ip), vehicle: other) is 126 and 145 % of control. Moreover, for the setting “dose: 400.0 mg/kg/injection, schedule: Q01DX009 (ip), vehicle: other”, the survivor count is given as 4 of 6.

With `O=c1[nH]cnc2nc(/N=N/SCCO)[nH]c12`, the T/C runs as follows: (dose: 50.0 mg/kg/injection, schedule: Q01DX005 (ip), vehicle: Klucel (hydroxypropylcellulose) (HPC)) 126 % of control; under setting [4], 136 % of control [5 of 6 alive]; under setting [5], 135 [3 of 4 alive] and 142 % of control.

With `CCOC(=O)CCOc1ccccc1N(CCCl)CCCl`, the T/C is 131 % of control (dose: 8.0 mg/kg/injection, schedule: Q04DX003 (ip), vehicle: saline sonified); 131 % of control (dose: 12.0 mg/kg/injection, schedule: Q04DX003 (ip), vehicle: saline sonified); 140 % of control (dose: 12.5 mg/kg/injection, schedule: Q04DX003 (ip), vehicle: saline with Tween-80); 136 % of control (dose: 18.0 mg/kg/injection, schedule: Q04DX003 (ip), vehicle: saline sonified). Further, the survivor count is, setting by setting: (dose: 25.0 mg/kg/injection, schedule: Q04DX003 (ip), vehicle: saline with Tween-80) 3 of 6; (dose: 50.0 mg/kg/injection, schedule: Q04DX003 (ip), vehicle: saline with Tween-80) 2 of 6; (dose: 100.0 mg/kg/injection, schedule: Q04DX003 (ip), vehicle: saline with Tween-80) 0 of 6.

As to `O=C(NC(Cc1c[nH]c2ccccc12)C(=O)O)OCC1c2ccccc2-c2ccccc21` (stereo not given), the survivor count under setting [5] was 0 of 6.

On to `O=C(c1ccccc1)N1CCCCC1`, for which the survivor count (dose: 400.0 mg/kg/injection, schedule: Q04DX003 (ip), vehicle: saline) is listed as 3 of 6.

For `CNc1ncnc2c1ccn2C1OC(CO)C(O)C1O` (stereo not given), the survivor count is 6 of 6 (dose: 50.0 mg/kg/injection, schedule: Q01DX005 (ip), vehicle: saline with Tween-80); 1 of 6 (dose: 100.0 mg/kg/injection, schedule: Q01DX005 (ip), vehicle: saline with Tween-80); 0 of 6 under setting [6].

Regarding `O=c1n(-c2ccccc2)c(=O)n2n1C1C3C4C5C3C2C5(F)C41` (stereo not given), the survivor count (dose: 400.0 mg/kg/injection, schedule: Q04DX003 (ip), vehicle: Klucel (hydroxypropylcellulose) (HPC)) is reported as 0 of 6.

For the compound `Nc1ccccc1N=C(CC(=O)c1ccco1)C(F)(F)F`, the survivor count is given as 6 of 6 (dose: 12.5 mg/kg/injection, schedule: Q01DX009 (ip), vehicle: saline) and 5 of 6 (dose: 50.0 mg/kg/injection, schedule: Q01DX009 (ip), vehicle: saline).

`COc1cc(NC(C)=O)c(OC)cc1N`: the survivor count was 0 of 6 and 1 of 6 (dose: 100.0 mg/kg/injection, schedule: Q04DX002 (ip), vehicle: saline); 0 of 6 (dose: 200.0 mg/kg/injection, schedule: Q04DX002 (ip), vehicle: saline); 0 of 6 (dose: 400.0 mg/kg/injection, schedule: Q04DX002 (ip), vehicle: saline).

As for `CCOc1cc2c(cc1C/C=C/c1cc(OC)c(OC)c(OC)c1)OCO2`, the survivor count runs as follows: under setting [1], 6 of 6; under setting [2], 6 of 6; under setting [3], 6 of 6.

As to `COC(=O)CC12CC3(C)CC(C)(C1)CC(CC(=O)OC)(C3)C2`, under setting [7], the T/C is 127 % of control.

Consider `[N-]=[N+]=N/C=C1\CCOC1=O`, for which the survivor count was 0 of 6 and 1 of 6 under setting [1]; 0 of 6 under setting [2].

Turning to `CCOC(=O)NNc1cccc(Cl)c1`, the survivor count under setting [8] was 1 of 6 and the survivor count (dose: 400.0 mg/kg/injection, schedule: Q01DX009 (ip), vehicle: saline) is 0 of 6.

On to `O=C1C2=C(Nc3ccccc3N2)OC1c1ccco1` (stereo not given), for which the survivor count reads like this: under setting [4], 6 of 6; under setting [5], 6 of 6.

With `Cc1cc(Br)c(NC(=O)c2c(-c3c(Cl)cccc3Cl)noc2C)c(Br)c1`, the survivor count (dose: 240.0 mg/kg/injection, schedule: Q01DX005 (ip), vehicle: Klucel (hydroxypropylcellulose) (HPC)) is listed as 6 of 6.

On to `CNc1[nH]c(=O)[nH]c(=O)c1[N+](=O)[O-]`, for which the survivor count under setting [4] is given as 0 of 5 and the survivor count under setting [5] is listed as 0 of 5.

Consider `CC(Cc1ccc(O)cc1)NCC(O)c1ccc(O)c(O)c1` (stereo not given), for which the T/C is, setting by setting: under setting [9], 127 % of control [5 of 6 alive]; under setting [10], 127 % of control [5 of 6 alive].

Turning to `COc1cccc2c1C(=O)c1c(O)c3c(c(O)c1C2=O)C[C@@](O)(C(C)=O)C[C@@H]3OC1CC(N)C(OC2CC(N)C(OC)C(C)O2)C(C)O1` (stereo not given in full), the T/C (dose: 12.5 mg/kg/injection, schedule: Q04DX003 (ip), vehicle: water, evaluated on day 35) was 126 % of control; the T/C (dose: 12.5 mg/kg/injection, schedule: Q04DX003 (ip), vehicle: water, evaluated on day 45) is 126 % of control; the T/C (dose: 25.0 mg/kg/injection, schedule: Q04DX003 (ip), vehicle: water, evaluated on day 35) is 132 % of control; the T/C (dose: 25.0 mg/kg/injection, schedule: Q04DX003 (ip), vehicle: water, evaluated on day 45) is 146 % of control; the T/C (dose: 50.0 mg/kg/injection, schedule: Q04DX003 (ip), vehicle: water) was 127 % of control.

`Cc1nc2n(c1C(N)=O)CCS2`: the survivor count (dose: 400.0 mg/kg/injection, schedule: Q04DX002 (ip), vehicle: Klucel (hydroxypropylcellulose) (HPC)) is recorded as 1 of 6.

On to `CC(C)c1ccccc1Oc1ccccc1N=C1CCN(C)C1`, for which the survivor count runs as follows: (dose: 100.0 mg/kg/injection, schedule: Q01DX009 (ip), vehicle: saline) 0 of 6; under setting [8], 0 of 6.

Regarding `CC(C)N1CCOC(c2cccc(C(F)(F)F)c2)C1` (stereo not given), the survivor count under setting [8] is 4 of 6.

As to `CCCC(=O)c1cc(-c2cc(C(=O)CCC)nc(N)n2)nc(N)n1`, under setting [3], the survivor count is reported as 1 of 6.

For the compound `O=CC(=C\c1cccs1)/C(C=O)=C\c1cccs1`, under setting [6], the survivor count is 1 of 6.

Turning to `[Cl][Pt+2][Cl].[NH-]CC([NH-])c1ccccc1` (stereo not given), the T/C (dose: 3.12 mg/kg/injection, schedule: Q01DX001 (ip), vehicle: Klucel (hydroxypropylcellulose) (HPC)) was 135 % of control and the T/C (dose: 6.25 mg/kg/injection, schedule: Q01DX001 (ip), vehicle: Klucel (hydroxypropylcellulose) (HPC)) was 133 % of control. Further, the survivor count (dose: 100.0 mg/kg/injection, schedule: Q01DX001 (ip), vehicle: Klucel (hydroxypropylcellulose) (HPC)) was 5 of 6 and the survivor count (dose: 200.0 mg/kg/injection, schedule: Q01DX001 (ip), vehicle: Klucel (hydroxypropylcellulose) (HPC)) is listed as 5 of 6.

In the case of `CN1C(=O)N(c2cc(Cl)cc(Cl)c2)C(=N)C1=S`, the survivor count (dose: 240.0 mg/kg/injection, schedule: Q01DX005 (ip), vehicle: Klucel + Tween-80) is 6 of 6.

As to `O=C(O)c1cc(C(=O)CCCC(=O)c2cc(C(=O)O)c(O)c3ccccc23)c2ccccc2c1O`, the survivor count was 6 of 6 under setting [7] and 0 of 6 under setting [9].

As for `CN1CCC(c2ccccc2)(c2ccccc2)C(=O)C1`, the survivor count is, setting by setting: under setting [9], 3 of 6; under setting [10], 0 of 6 (2×).

On to `COc1cc2cc(-c3ccc(OC(C)C)c(OC)c3)[n+](C)cc2cc1OC`, for which the survivor count (dose: 400.0 mg/kg/injection, schedule: Q01DX001 (ip), vehicle: saline with Tween-80) is 0 of 6.
